Drawing on paper PMC6449973, this text covers binding for one substance.

Assay [1] deals with connexin 32 (human (endogenous in HepG2)) (UniProt P08034). The experiment in a line: co-IP; HepG2-Vector and HepG2-shCx32 cell lysates; anti-Cx32, anti-p-EGFR or anti-Src antibody (2 ug, 4 °C, 4 h), Protein G Plus/Protein A agarose overnight at 4 °C, 5 washes with lysis buffer; nonspecific IgG as negative control; western blot.
The target of assay [2] is connexin 32, stably overexpressed in SMMC-7721 cells (SMMC-Cx32) (UniProt P08034). The experiment in a line: co-IP; SMMC-Vector and SMMC-Cx32 (stable Cx32 overexpression) cell lysates; anti-Cx32, anti-p-EGFR or anti-Src antibody (2 ug, 4 °C, 4 h), Protein G Plus/Protein A agarose overnight at 4 °C, 5 washes with lysis buffer; nonspecific IgG as negative control; western blot. A general note: A western blot detects proteins with antibodies after separation by electrophoresis.

Results are given in words; binding and its absence hold for the method and conditions named. Binding seen in cells or lysates may run through a third protein. Some binding calls cover weakened binding; strength is not graded here.

Regarding “phospho-EGFR (epidermal growth factor receptor phosphorylated at Tyr845) (from UniProt P00533 25-1210)”, the binding entry in assay [1] and in assay [2] was “binds” in each case.
